Results from patent US20160145619.

By UniProt entry, the sequences of proteins in these tests, tags left out. Where a name states a change or a piece, a line headed by the entry shows the natural chain unless it says otherwise.
UniProt Q04609: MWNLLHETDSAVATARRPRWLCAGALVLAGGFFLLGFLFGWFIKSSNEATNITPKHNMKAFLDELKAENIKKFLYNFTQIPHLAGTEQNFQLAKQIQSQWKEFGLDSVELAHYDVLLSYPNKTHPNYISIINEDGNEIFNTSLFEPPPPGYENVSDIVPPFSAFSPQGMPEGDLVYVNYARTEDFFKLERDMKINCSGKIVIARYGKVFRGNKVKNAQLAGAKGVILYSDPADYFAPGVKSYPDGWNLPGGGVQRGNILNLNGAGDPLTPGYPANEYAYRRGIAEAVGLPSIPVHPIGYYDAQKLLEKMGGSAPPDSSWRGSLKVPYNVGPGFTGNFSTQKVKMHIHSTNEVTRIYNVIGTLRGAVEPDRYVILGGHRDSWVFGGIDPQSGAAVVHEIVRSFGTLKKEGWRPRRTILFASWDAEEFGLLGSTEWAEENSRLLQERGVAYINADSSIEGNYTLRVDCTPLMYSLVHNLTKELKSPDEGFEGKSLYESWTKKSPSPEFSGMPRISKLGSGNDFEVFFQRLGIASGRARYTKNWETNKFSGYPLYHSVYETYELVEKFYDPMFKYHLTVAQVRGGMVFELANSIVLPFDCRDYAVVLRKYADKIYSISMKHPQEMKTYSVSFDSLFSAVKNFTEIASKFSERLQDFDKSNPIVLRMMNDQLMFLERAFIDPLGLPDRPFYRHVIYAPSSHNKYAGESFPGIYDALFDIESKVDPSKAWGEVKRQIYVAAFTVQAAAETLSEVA

Biological target: Prostate specific membrane antigen (PSMA), extracellular domain (UniProt Q04609)
Experiment: SELEX
Settings: 9 of 10 clones in second SELEX; binding 60 min at 37 C; purified recombinant protein; label: Rhodamine or Quasar 570; single-stranded DNA

With “GCGTTTTCGCTTTTGCGTTTTGGGTCATCTGCTTACGATAGCAATCGT [PSMA01]” the selection result was “selected”.

The exact form of at least one protein or probe is not confirmed.
